The supplement of paper PMC8728848
The list shows a part of the results.

Experiments:
Assay in all cases: glycan array binding signal (z-score within array); higher = stronger binding
Conditions in all cases: glycan notation: IUPAC condensed, linker removed
[1] = molecular target: Gal6S(b1-4)Glc6S
Summary of the method: (§1)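 From the Consortium for Functional Glycomics database, 3228 arrays were curated, keeping only those whose protein sequence was available. Binding is given as a within-array Z-score averaged across arrays sharing a protein sequence and across linkers. Negative Z-scores can be read as non-binding.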

[2] = molecular target: Gal6S(b1-4)GlcNAc
Summary of the method: as §1

[3] = molecular target: Gal6S(b1-4)GlcNAc6S
Summary of the method: as §1

[4] = molecular target: GalNAc(a1-3)Gal
Summary of the method: as §1

[5] = molecular target: GalNAc(a1-3)GalNAc
Summary of the method: as §1

[6] = molecular target: GalNAc(a1-3)GalNAc(b1-3)Gal(a1-4)Gal(b1-4)Glc
Summary of the method: as §1

[7] = molecular target: GalNAc(a1-3)GalNAc(b1-3)Gal(a1-4)Gal(b1-4)GlcNAc
Summary of the method: as §1

[8] = molecular target: GalNAc(b1-3)Gal
Summary of the method: as §1

[9] = molecular target: GalNAc(b1-3)Gal(a1-4)Gal(b1-4)GlcNAc
Summary of the method: as §1

[10] = molecular target: GalNAc(b1-3)Gal(a1-4)Gal(b1-4)GlcNAc(b1-3)Gal(b1-4)Glc
Summary of the method: as §1

[11] = molecular target: GalNAc(b1-3)Gal(a1-6)Gal(b1-4)Glc
Summary of the method: as §1

[12] = molecular target: GalNAc(b1-3)GalNAc
Summary of the method: as §1

[13] = molecular target: GalNAc(b1-3)GlcNAc
Summary of the method: as §1

[14] = molecular target: GalNAc(b1-4)Gal(b1-4)Glc
Summary of the method: as §1

[15] = molecular target: GalNAc(b1-4)GlcNAc
Summary of the method: as §1

[16] = molecular target: GalNAc(b1-4)GlcNAc(b1-2)Man
Summary of the method: as §1

[17] = molecular target: GalNAc(b1-4)GlcNAc(b1-2)Man(a1-3)[GalNAc(b1-4)GlcNAc(b1-2)Man(a1-6)]Man(b1-4)GlcNAc(b1-4)GlcNAc
Summary of the method: as §1

[18] = molecular target: GalNAc(b1-4)GlcNAc(b1-3)GalNAc(b1-4)GlcNAc
Summary of the method: as §1

[19] = molecular target: GalNAc(b1-4)GlcNAc6S
Summary of the method: as §1

[20] = molecular target: GalNAc(b1-6)GalNAc
Summary of the method: as §1

[21] = molecular target: GalNAc3S(b1-4)GlcNAc
Summary of the method: as §1

[22] = molecular target: GalNAc3S(b1-4)GlcNAc3S
Summary of the method: as §1

[23] = molecular target: GalNAc3S(b1-4)[Fuc(a1-3)]GlcNAc
Summary of the method: as §1

[24] = molecular target: GalNAc4S6S(b1-4)GlcNAc
Summary of the method: as §1

[25] = molecular target: GalNAc6S(b1-4)GlcNAc
Summary of the method: as §1

[26] = molecular target: Glc(a1-4)Glc
Summary of the method: as §1

[27] = molecular target: Glc(a1-4)Glc(a1-4)Glc(a1-4)Glc
Summary of the method: as §1

[28] = molecular target: Glc(a1-6)Glc(a1-6)Glc
Summary of the method: as §1

[29] = molecular target: Glc(a1-6)Glc(a1-6)Glc(a1-6)Glc
Summary of the method: as §1

[30] = molecular target: Glc(b1-4)Glc
Summary of the method: as §1

[31] = molecular target: Glc(b1-6)Glc
Summary of the method: as §1

[32] = molecular target: GlcA(b1-3)Gal
Summary of the method: as §1

[33] = molecular target: GlcA(b1-3)GlcNAc
Summary of the method: as §1

[34] = molecular target: GlcA(b1-6)Gal
Summary of the method: as §1

[35] = molecular target: GlcA3S(b1-3)Gal(b1-4)GlcNAc(b1-2)Man
Summary of the method: as §1

[36] = molecular target: GlcA3S(b1-3)Gal(b1-4)GlcNAc(b1-3)Gal(b1-4)Glc
Summary of the method: as §1

[37] = molecular target: GlcNAc(a1-3)Gal(b1-4)GlcNAc
Summary of the method: as §1

B1: PX9961Q-bfa-504-27-504 (Bacteroides fragilis) (protein)
chain: NDWLDRKPADGIPSEDAITNYNDALTARTGMYDGIQGNSNATSYYGARMFYYGDVRADDMQARTQGMRSSSCYEMLYTVDDAPNMWNIPYNVIRRANRLIEAINEKKVTDATEAQIGKIYSEALVVRALVHFDLVRIYGMPYTADNGASLGVPVIVKPLERNDLPSRNTVAEVYTQVITDLTDAINSGYLAKDQTPGYINEWAAKALLTRVYLTKGDNENALKVAEDIITNSPYKLWTNEEYVNAWYKSNGAHTNEMIFEVVNASNDDWTDRNGIAYLLNENGYADAIVTKSFMNMLSQDPKDVRIGMVLPAQYDKDLQEEYGDAKIFINKFPADKDDVGEMRLNNLPLLRLSEVYLSAAEAAAKLGGHQDKAAKYLNEIVQRANPEAKAISEADATVERIILERRKEMIGEGQRYFDALRNNETIVRYKDEGDKGYHYSLIKESQSFDRTYFRAILPIPVDETNVNPNLRAQQNPGY
[1]
  glycan array binding signal (z-score): -0.063
[2]
  glycan array binding signal (z-score): -0.679
[3]
  glycan array binding signal (z-score): -0.591
[4]
  glycan array binding signal (z-score): -0.131
[5]
  glycan array binding signal (z-score): -0.295
[6]
  glycan array binding signal (z-score): -1.01
[7]
  glycan array binding signal (z-score): 1.69
[8]
  glycan array binding signal (z-score): -0.079
[9]
  glycan array binding signal (z-score): -0.265
[10]
  glycan array binding signal (z-score): 0.152
[11]
  glycan array binding signal (z-score): -0.567
[12]
  glycan array binding signal (z-score): 0.041
[13]
  glycan array binding signal (z-score): 0.354
[14]
  glycan array binding signal (z-score): 0.821
[15]
  glycan array binding signal (z-score): -0.79
[16]
  glycan array binding signal (z-score): -0.586
[17]
  glycan array binding signal (z-score): 1.65
[18]
  glycan array binding signal (z-score): 0.716
[19]
  glycan array binding signal (z-score): -1.03
[20]
  glycan array binding signal (z-score): 0.407
[21]
  glycan array binding signal (z-score): -0.773
[22]
  glycan array binding signal (z-score): -0.067
[23]
  glycan array binding signal (z-score): -0.266
[24]
  glycan array binding signal (z-score): -0.043
[25]
  glycan array binding signal (z-score): -1.27
[26]
  glycan array binding signal (z-score): 0.181
[27]
  glycan array binding signal (z-score): -0.549
[28]
  glycan array binding signal (z-score): -0.584
[29]
  glycan array binding signal (z-score): -0.611
[30]
  glycan array binding signal (z-score): -0.009
[31]
  glycan array binding signal (z-score): 0.413
[32]
  glycan array binding signal (z-score): -0.821
[33]
  glycan array binding signal (z-score): -0.475
[34]
  glycan array binding signal (z-score): 2.12
[35]
  glycan array binding signal (z-score): -0.231
[36]
  glycan array binding signal (z-score): -1.22
[37]
  glycan array binding signal (z-score): -0.591
